# From PubChem BioAssay AID493014 (National Center for Advancing Translational Sciences (NCATS), 2011)
# About 170 (0.05%) of roughly 340,000 compounds were called active. Inconclusive results, whose numbers are uncertain, are shown with a selection of clear calls. Calls come from the whole dose curve; as a rule, active = well fitted inhibition curve with a large enough effect in the signal ratio, with a control signal flat (not every such curve was filed as active); inconclusive = small, poorly fitted or top-dose-only effect, or effect the other way, or a change in a side signal; inactive = flat fitted curve, though single readings scatter; the % refers to the signal ratio. Where the call is inconclusive, the potency comes from a doubtful curve fit.
# Assay: qHTS Assay to Find Inhibitors of Chronic Active B-Cell Receptor Signaling;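 for activity change, negative = inhibition: plate controls were basal doxycycline-induced cells for no effect and cells given 10 µM MG132 for full effect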
# Conditions: ABC-DLBCL IkBa-CBG/CBR reporter, luminescence ratio (green luciferase fused to IkBa over red control in TMD8 lymphoma cells), 4 h; activity change, negative = inhibition: at 46.1 µM (top of the series)
# Summary of the method: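 Cell line TMD8 (human ABC DLBCL), stably expressing tet-inducible CBG68-IkBa fusion and CBR; IMDM/0.5% FBS; cpd up to 46 uM; dox induction, 4 h, 37C/5% CO2; dual luminescence; green/red ratio; MG132 control.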
# Potency is the fitted concentration of half-maximal effect.
SMILES,"activity change, negative = inhibition",Potency
Cc1noc(C(=O)Nc2ccc3c(c2)OCO3)c1Cl,inconclusive: 2.99%,–
Brc1ccc(CNc2nc3ccccc3n2CCN2CCCCC2)cc1,inactive,–
CS(=O)(=O)c1ccc(NC(=O)CCN2C(=O)C3CC=CCC3C2=O)cc1 (centres undefined),inconclusive: -9.12%,–
O=C(Nc1ccc2c(c1)OCCO2)c1ccc(Cl)cc1,–,"inconclusive: 35.5 µM [falling, single point]"
O=C(O)c1ccc(CSc2nc3ccccc3c(=O)n2-c2ccccc2)cc1,inconclusive: -1.47%,–
O=C(Sc1cccc2cccnc12)c1ccccc1Br,–,"inconclusive: 0.631 µM [falling, partial curve, poor fit]"
CCOC(=O)N1CCC(NC(=O)C2CCN(S(=O)(=O)c3c(C)noc3C)CC2)CC1,inconclusive: 8.9%,–
COc1cccc(OC)c1OCCCCCCN1CCN(C)CC1,inconclusive: 7.67%,–
Cn1c2ccccc2c2cc(/C=N/NC(=O)c3ccc(O)cc3O)ccc21,inconclusive: -9.22%,–
CC(C)COC(=O)Nc1ccc(C(=O)O)cc1,inconclusive: -27.2%,–
CCN(CC(=O)NCc1cccs1)C(=O)c1ccc(OC)c(OC)c1,inconclusive: 14.3%,–
O=C(NC1CCSc2ccccc21)c1ccc(C(F)(F)F)cc1 (centres undefined),–,"inconclusive: 0.501 µM [falling, full curve]"
COCCn1c(C)cc(C(=O)COC(=O)CNC(=O)c2ccco2)c1C,inconclusive: 0.958%,–
c1ccc2c(c1)ncn2CCn1cnc2ccccc21,inactive,–
O=C(Nc1ccc(N2CCN(C(=O)c3ccccc3)CC2)c(Cl)c1)c1ncn[nH]1,–,"inconclusive: 6.31 µM [rising, partial curve, poor fit]"
COc1ccccc1NC(=O)C1CC(=O)N(c2ccc(F)cc2)C1 (centres undefined),inconclusive: 4.89%,–
CC(C)n1c(-c2ccc(C(C)(C)C)cc2)n[nH]c1=S,inactive,–
Cc1ccccc1NC(=S)NC(C)C(c1cccs1)N1CCOCC1 (centres undefined),inactive,–
Cc1ccc(S(=O)(=O)NCCNc2ccc([N+](=O)[O-])cc2C(F)(F)F)cc1,inconclusive: 14.8%,–
COCCn1c(-c2ccccc2)nc2ccccc21,inactive,–
COc1ccccc1NC(=O)N(Cc1ccc2c(c1)OCO2)Cc1nc2ccccc2c(=O)[nH]1,inactive,–

SMILES,"activity change, negative = inhibition",Potency
Cc1ccc(N2CC(NC(=O)C3CC3)CC2=O)cc1 (centres undefined),inactive,–
COc1ccccc1CNC(=O)CCN1C(=O)COc2ccccc21,inconclusive: -193%,–
CN1CCN(CCCNC(=O)CCC(=O)N2CCOc3ccccc32)CC1,inconclusive: 1.93%,–
Cc1ccccc1NC(=O)Cc1nc(COC(=O)c2ccc(S(C)(=O)=O)c([N+](=O)[O-])c2)cs1,inconclusive: 3.03%,–
COCc1cc(C)nc(SCc2ccccc2Cl)c1C#N,inconclusive: 0.985%,–
CCn1cc(C2=NC(C(C)C)CO2)c2ccccc21 (centres undefined),inconclusive: 9.33%,–
CCc1nnc(NC(=O)CN2CCN(c3ccccc3OC)CC2)s1,inconclusive: 0.475%,–
O=C(COc1ccc2c(c1)C(=O)CC1(CCCCC1)O2)NCc1ccccn1,inactive,–
CCN(C(=O)c1ccc2c(Cl)c3c(nc2c1)CCC3)c1ccc(C)c(C)c1,inconclusive: -2.49%,–
CN1C(=O)C(O)(CC(=O)/C=C\c2ccc3c(c2)OCO3)c2ccccc21 (centres undefined),–,"inconclusive: 12.6 µM [falling, partial curve, poor fit]"
Cc1ccc(S(=O)(=O)N(CC2CO2)c2cc(Cl)ccc2Cl)cc1 (centres undefined),inconclusive: -3.31%,–
O=C(NNC1CC(=O)N(c2ccccc2)C1=O)c1ccccc1Cl (centres undefined),inconclusive: -9.91%,–
CCOC(=O)C1CCCCN1C(=O)CCc1c(C)nc2cc(-c3ccccc3)nn2c1C (centres undefined),–,"inconclusive: 23.1 µM [falling, partial curve]"
CCOC(=O)C1=C2NC(=O)c3ccccc3N2C(=O)C1,inactive,–
CCNc1nc(NCC)n2c(SCc3nc4ccccc4c(=O)[nH]3)nnc2n1,inconclusive: 5.27%,–
COc1ccc(-c2cc(C(=O)Nc3cc(C)on3)c3ccccc3n2)c(OC)c1,inconclusive: 8.27%,–
COC(=O)c1sccc1-n1cc(C#N)c(=O)n(C)c1=O,inconclusive: 3.71%,–
Cc1cc(CN2CCCC(C(=O)Nc3ccc(-c4nc5ccccc5[nH]4)cc3)C2)n[nH]1 (centres undefined),inconclusive: 6.36%,–
O=C(NC(CSCc1ccccc1)C(=O)N/N=C/c1ccc(O)cc1O)c1ccc([N+](=O)[O-])cc1 (centres undefined),–,"inconclusive: 16.4 µM [falling, partial curve]"
CC(C)c1ccccc1OCC(=O)Nc1cc(S(=O)(=O)N2CCOCC2)ccc1N1CCCC1,inconclusive: -12.1%,–
CC(=O)c1c(C)[nH]c(C(=O)OCc2ccccc2)c1C,inconclusive: -1.47%,–

SMILES,"activity change, negative = inhibition",Potency
O=C(CSc1nccn1-c1ccccc1)NCc1ccc2c(c1)OCO2,inconclusive: -4.04%,–
CC(C)NC(NC(=O)/C=C/c1ccccc1)C(Cl)(Cl)Cl (centres undefined),inconclusive: 9.75%,–
CCOc1cc(C(=O)N(C)Cc2cc3ccccc3[nH]c2=O)cc(OCC)c1OCC,inconclusive: 4.64%,–
COc1ccc(NC(=S)NC(=O)c2ccc(Br)o2)cc1,inactive,–
CCOc1ccccc1CN1CCN(Cc2ccc3cc(F)ccc3n2)CC1CCO (centres undefined),inactive,–
COc1ccc(CS(=O)/C(Cl)=C(/Cl)C(=O)Nc2ccc(OC)nc2)cc1 (centres undefined),inconclusive: 13.6%,–
COc1ccccc1C(=O)Nc1ccc(-c2nnn(CC(=O)N3CCN(C(=O)c4ccco4)CC3)n2)cc1,–,"inconclusive: 6.31 µM [falling, single point]"
O=C(Nc1nc(-c2ccccn2)cs1)c1ccco1,–,"inconclusive: 25.1 µM [falling, single point]"
COc1ccc(-c2nc3ccccn3c2NCc2ccc3c(c2)OCO3)cc1,inconclusive: -17.7%,–
O=C(NNC(=O)c1cc2cc(Br)ccc2oc1=O)c1ccc(O)cc1,–,"inconclusive: 14.1 µM [falling, partial curve, poor fit]"
O=C(/C=C/Nc1cccc(C(F)(F)F)c1)c1ccc(Oc2ncccn2)cc1,inconclusive: 2.9%,–
CCOc1ccc(C(=O)C2CCN(CC(=O)Nc3ccccc3N3CCOCC3)CC2)cc1,inconclusive: 4.19%,–
COc1ccc(NC(=O)CN2CCN(c3ccccc3F)CC2)cc1,inactive,–
CCn1ncc(CN2CCN(Cc3cccc(OC)c3)C(CCO)C2)c1C (centres undefined),inconclusive: -27.6%,–
Cc1nc2ccccc2n1CCOc1ccc(F)cc1,inconclusive: 3.92%,–
O=C(N/N=C/c1ccc([N+](=O)[O-])o1)c1sc2ccccc2c1Cl,inactive,–
CC(OC(=O)CSc1ccccc1)C(=O)NC1CCCCC1C (centres undefined),inconclusive: -0.633%,–
CCN(CC)S(=O)(=O)c1cc([N+](=O)[O-])ccc1NNC(=O)Nc1ccc(F)cc1,inconclusive: 25.9%,–
CC[C@]12c3[nH]c4cc(CCC(=O)N(C)C)ccc4c3CCN1C(=O)[C@@H](CC(=O)NCc1ccco1)C[C@@H]2C(=O)N1CCN(C(=O)C2CC2)CC1,inconclusive: 0.0319%,–
O=C(O)/C(=C\c1ccco1)NC(=O)c1cccc2ccccc12,–,"inconclusive: 11.2 µM [rising, partial curve, poor fit]"
O=C(NCc1ccc(Cl)cc1)c1noc2c1CCCCC2,inconclusive: 10.1%,–

SMILES,"activity change, negative = inhibition",Potency
N/C(=N\OC(=O)CCc1ccccc1)c1ccc(Cl)cc1,inconclusive: 9.05%,–
Cc1csc(C(C#N)C(=O)c2ccc(S(=O)(=O)N3CCCC3)cc2)n1 (centres undefined),inactive,–
O=[N+]([O-])c1cccn2cc(-c3ccc(Br)cc3)nc12,inconclusive: 8.04%,–
COc1ccc(CCn2c(C)cc(C(=O)COC(=O)c3cnc(C)cn3)c2C)cc1,inconclusive: 3.51%,–
C/C(=N\NC(=S)Nc1c(C)cccc1C)c1ccc(O)cc1,inconclusive: -21.9%,–
C=CCOc1c(Br)cc(/C=N/n2c(CC)n[nH]c2=S)cc1Br,inactive,–
NC(=O)CCS(=O)(=O)CCN1CCCCC1,inconclusive: -0.704%,–
CCN(CC)C(=S)NC(=O)c1ccc(Cl)cc1Cl,inactive,–
COc1ccc(-c2nc3ccccc3o2)cc1OC,inactive,–
O=C(Cn1cc(C(=O)c2cccs2)c2ccccc21)NCc1ccc2c(c1)OCO2,inconclusive: 2.6%,–
CSc1nc2nc3c(cc2c(=O)n1-c1ccccc1C)CCCC3,inactive,–
Cc1nc2ccccc2n1C1CCN(CC(=O)NCc2ccc(F)cc2)CC1,inactive,–
Cc1noc(C)c1COc1ccc(C(=O)OCC(=O)N2CC(=O)Nc3ccccc32)cc1,–,"inconclusive: 22.4 µM [falling, single point]"
CC(C)C(NC(=O)c1ccc(C(C)(C)C)cc1)C(=O)Nc1cccc(S(N)(=O)=O)c1 (centres undefined),inconclusive: -2.42%,–
Cc1ccc(S(=O)(=O)CC(=O)Nc2nc3c(C)cc(C)cc3s2)cc1,inactive,–
CCOC(=O)C(NC(=O)Nc1ccc(Cl)cn1)(Oc1ccccc1)C(F)(F)F (centres undefined),inconclusive: -2.49%,–
Cc1ccc(NC(=O)Nc2ccc(F)cc2)nc1,–,"inconclusive: 29.1 µM [falling, single point]"
CCN(CC(=O)Nc1c(F)cccc1F)C(=O)c1ccc(Cl)c(S(=O)(=O)N2CCCCC2)c1,inactive,–
O=C(Cc1ccc(-n2cccc2)cc1)NCc1ccccc1Cl,inconclusive: -3.71%,–
O=C(CN1C(=O)S/C(=C\c2ccccc2)C1=O)NCCCn1ccnc1,inconclusive: -14.3%,–
CC(c1ccccc1)C1CC(=O)N(C2CCCCC2)C1=O (centres undefined),–,"inconclusive: 16.4 µM [rising, partial curve, poor fit]"

# Seven records drawn at random from the list so far, as already listed:
SMILES,"activity change, negative = inhibition",Potency
CCN(CC(=O)Nc1c(F)cccc1F)C(=O)c1ccc(Cl)c(S(=O)(=O)N2CCCCC2)c1,inactive,–
CC(c1ccccc1)C1CC(=O)N(C2CCCCC2)C1=O (centres undefined),–,"inconclusive: 16.4 µM [rising, partial curve, poor fit]"
C=CCOc1c(Br)cc(/C=N/n2c(CC)n[nH]c2=S)cc1Br,inactive,–
C/C(=N\NC(=S)Nc1c(C)cccc1C)c1ccc(O)cc1,inconclusive: -21.9%,–
CC(C)C(NC(=O)c1ccc(C(C)(C)C)cc1)C(=O)Nc1cccc(S(N)(=O)=O)c1 (centres undefined),inconclusive: -2.42%,–
O=[N+]([O-])c1cccn2cc(-c3ccc(Br)cc3)nc12,inconclusive: 8.04%,–
CSc1nc2nc3c(cc2c(=O)n1-c1ccccc1C)CCCC3,inactive,–
